Results deposited as PubChem BioAssay AID1259308 (NCATS, 2017).

- Test: 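Genes whose loss raises luciferase production in HEK293 cells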 (primary screen)
- System: human HEK293 embryonic kidney cells stably expressing firefly luciferase (HEK-CMV-Luc2-Hygro)
- Knock-down reagent: single siRNA against human genes, 0.8 pmol siRNA per well
- Time to read-out: 72 h
- Detection: 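Luciferase light (ONE-Glo) measured on one replicate plate set and viability (CellTiter-Glo) on the other, scaled to a negative control siRNA, with robust z-scores and luciferase per cell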
- Scale: total luciferase, z-score and total luciferase, % of control: higher = more reporter protein produced
- Call rule: 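An siRNA counts as active if its total luciferase robust z-score exceeds 3; genes with two or more such siRNAs out of three were retested with fresh siRNAs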
- Calls: active = raised luciferase; inactive = no rise
The whole screen tested about 59,000 reagents; this is a part drawn at random. About 1,510 of all reagents (2.6%) count as active. 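Calls use total luciferase alone and ignore viability, so some active siRNAs may act by altering cell number.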 Entries without a mark were called inactive. The numbers tell different reagents against one gene apart. Further read-outs or replicates are left out here. No sequences are given here.

VSIG10L2 #1 | total luciferase, z-score = 0.0941; total luciferase, % of control = 83.8
VSIG10L2 #2 | total luciferase, z-score = 3.41 (active); total luciferase, % of control = 150
VSIG10L2 #3 | total luciferase, z-score = -1.26; total luciferase, % of control = 56.8
POSTN #1 | total luciferase, z-score = 1.19; total luciferase, % of control = 106
POSTN #2 | total luciferase, z-score = 0.487; total luciferase, % of control = 91.6
POSTN #3 | total luciferase, z-score = -0.0311; total luciferase, % of control = 81.3
ATP13A2 #1 | total luciferase, z-score = -0.926; total luciferase, % of control = 63.5
ATP13A2 #2 | total luciferase, z-score = -1.87; total luciferase, % of control = 44.7
ATP13A2 #3 | total luciferase, z-score = 2.14; total luciferase, % of control = 124
DARS1 #1 | total luciferase, z-score = -1.79; total luciferase, % of control = 46.3
DARS1 #2 | total luciferase, z-score = 0.161; total luciferase, % of control = 85.1
DARS1 #3 | total luciferase, z-score = -1.31; total luciferase, % of control = 55.8
CHST10 #1 | total luciferase, z-score = -0.358; total luciferase, % of control = 74.8
CHST10 #2 | total luciferase, z-score = 1.86; total luciferase, % of control = 119
CHST10 #3 | total luciferase, z-score = -0.744; total luciferase, % of control = 67.1
CNN2 #1 | total luciferase, z-score = 0.55; total luciferase, % of control = 92.8
CNN2 #2 | total luciferase, z-score = -1.28; total luciferase, % of control = 56.4
CNN2 #3 | total luciferase, z-score = -0.167; total luciferase, % of control = 78.6
SLC66A3 #1 | total luciferase, z-score = 1.26; total luciferase, % of control = 107
SLC66A3 #2 | total luciferase, z-score = -0.0181; total luciferase, % of control = 81.5
SLC66A3 #3 | total luciferase, z-score = -0.0166; total luciferase, % of control = 81.6
OR5AC2 #1 | total luciferase, z-score = -0.459; total luciferase, % of control = 72.8
OR5AC2 #2 | total luciferase, z-score = 0.55; total luciferase, % of control = 92.8
OR5AC2 #3 | total luciferase, z-score = -0.1; total luciferase, % of control = 79.9
BMP4 #1 | total luciferase, z-score = 0.0706; total luciferase, % of control = 83.3
BMP4 #2 | total luciferase, z-score = -0.0874; total luciferase, % of control = 80.1
BMP4 #3 | total luciferase, z-score = 1.05; total luciferase, % of control = 103
LINC00886 #1 | total luciferase, z-score = 0.366; total luciferase, % of control = 89.2
LINC00886 #2 | total luciferase, z-score = -0.71; total luciferase, % of control = 67.8
LINC00886 #3 | total luciferase, z-score = -1.26; total luciferase, % of control = 56.9
BMP7 #1 | total luciferase, z-score = -1.5; total luciferase, % of control = 52.1
BMP7 #2 | total luciferase, z-score = -1.09; total luciferase, % of control = 60.2
BMP7 #3 | total luciferase, z-score = 0.549; total luciferase, % of control = 92.8
TSKS #1 | total luciferase, z-score = 0.979; total luciferase, % of control = 101
TSKS #2 | total luciferase, z-score = 1.13; total luciferase, % of control = 104
TSKS #3 | total luciferase, z-score = -0.862; total luciferase, % of control = 64.7
ZNF721 #1 | total luciferase, z-score = 0.599; total luciferase, % of control = 93.8
ZNF721 #2 | total luciferase, z-score = 1; total luciferase, % of control = 102
ZNF721 #3 | total luciferase, z-score = -2.3; total luciferase, % of control = 36.1
ZSCAN5B #1 | total luciferase, z-score = 0.177; total luciferase, % of control = 85.4
ZSCAN5B #2 | total luciferase, z-score = -0.781; total luciferase, % of control = 66.4
ZSCAN5B #3 | total luciferase, z-score = 2.03; total luciferase, % of control = 122
